PubChem BioAssay AID1259270, Sanger Institute – 2017

- Test: 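Follow-up of kinome hits for synergy with three anchor drugs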 (follow-up of hits)
- Cells: human SNU-C5 colorectal cancer cells
- Reagents: single siRNA against human genes
- Challenge: anchor drugs added after knock-down: BYL719 1 µM, cetuximab 5 µg/ml or trametinib 10 nM, or DMSO vehicle
- Detection: 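Cell survival for each replicate, scaled to non-targeting control pool 2 and then averaged; drug given after knock-down; synergy score compares the combined effect with knock-down and drug separately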
- Scale: synergy score with BYL719 and synergy score with cetuximab and synergy score with trametinib: higher = stronger synergy (extra killing) with the drug
- Rule for the call: 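a score above 0.10 for BYL719, cetuximab or trametinib gives a synergy call; no score above 0.10 means no synergy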
- Calls: active = synergy with at least one drug; inactive = no synergy with any drug
In all, the deposit lists 160 reagents; shown is a random part of them. In the full data, 76 (48%) got an active call. 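Four separate siRNAs per gene; calls are per siRNA in one cell line, looser than gene-level validation across several lines.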 A number with no mark means an inactive call. The numbers tell different reagents against one gene apart. Further read-outs or replicates are left out here. Not given: the amount of reagent, the time to read-out.

AK2 (adenylate kinase 2) #1
- synergy score with BYL719: -0.123
- synergy score with cetuximab: -0.116
- synergy score with trametinib: -0.268

AK2 (adenylate kinase 2) #2
- synergy score with BYL719: 0.0291 (active)
- synergy score with cetuximab: -0.111
- synergy score with trametinib: 0.177

AK2 (adenylate kinase 2) #3
- synergy score with BYL719: -0.0888 (active)
- synergy score with cetuximab: -0.0233
- synergy score with trametinib: 0.166

AK2 (adenylate kinase 2) #4
- synergy score with BYL719: -0.313
- synergy score with cetuximab: -0.0757
- synergy score with trametinib: 0.075

IRAK1 (interleukin 1 receptor associated kinase 1) #1
- synergy score with BYL719: 0.112 (active)
- synergy score with cetuximab: 0.17
- synergy score with trametinib: 0.683

IRAK1 (interleukin 1 receptor associated kinase 1) #2
- synergy score with BYL719: 0.0729 (active)
- synergy score with cetuximab: 0.129
- synergy score with trametinib: 0.166

IRAK1 (interleukin 1 receptor associated kinase 1) #3
- synergy score with BYL719: 0.113 (active)
- synergy score with cetuximab: -0.115
- synergy score with trametinib: -0.231

IRAK1 (interleukin 1 receptor associated kinase 1) #4
- synergy score with BYL719: 0.463 (active)
- synergy score with cetuximab: 0.0201
- synergy score with trametinib: 0.0931

PAK1 (p21 (RAC1) activated kinase 1) #1
- synergy score with BYL719: -0.139 (active)
- synergy score with cetuximab: 0.109
- synergy score with trametinib: 0.307

PAK1 (p21 (RAC1) activated kinase 1) #2
- synergy score with BYL719: -0.0993
- synergy score with cetuximab: -0.0915
- synergy score with trametinib: -0.116

PAK1 (p21 (RAC1) activated kinase 1) #3
- synergy score with BYL719: 0.0393 (active)
- synergy score with cetuximab: -0.208
- synergy score with trametinib: 0.316

PAK1 (p21 (RAC1) activated kinase 1) #4
- synergy score with BYL719: -0.182
- synergy score with cetuximab: -0.0724
- synergy score with trametinib: -0.0885
